No constants are given. Whether binding was seen depends on the method and setting. A result given as binding can be weak or reduced; the word gives no strength.

The text below walks through data of US20060177440A1.

Common to all, as to assay: Fab/phage agglutination (anti-M13)
Test [1] deals with partial Rh(D) antigen, D category III (human).
For test [2], the target named is partial Rh(D) antigen, D category IVa (human).
The target of test [3] is partial Rh(D) antigen, D category IVb (human).
Test [4] has as its target partial Rh(D) antigen, D category V (human).
For test [5], the target named is partial Rh(D) antigen, D category VI (human).
For test [6], the target named is partial Rh(D) antigen, D category VII (human).

B1: SH37 (Fab, V domains shown)
VH: EVQLLESGGGVVQPGRSLRLSCEASKFTLYNYGMHWVRQAPGKGLEWVAFIWFDGSNKYYEDSVKGRFTVSRDNSKNTLYLQMNSLRAEDTAVYYCARELSKKVALSRYYYYMDVWGQGTTVTVSS
VL: AELQDPVVSVALGQTVKITCQGDSLRKYYASWYQQKPGQAPVLVFYARNSRPSGIPDRFSGSNSGTTASLTIAGARAEDEADYYCHSRDSNGHHRVFGGGTKLTVL
With B1, the binding entry in test [1] is listed as “binds”; in test [2], “binds”; in test [3], “no binding”; in test [4] it was “no binding”; in test [5], “no binding”; in test [6], “binds”.

B2: SH25 (Fab, V domains shown)
VH: VQLLEESGGGVVQPGRSLRLACAASGFSFRSYGMHWVRQAPGRGLEWVAFTWFDGSNKYYVDSVKGRFTISRDNSKNTLYLEMNSLRVDDTAVYYCAREAPMLRGISRYYYAMDVWGPGTTVTVSS
VL: AELTQSPSSLSASVGDRVTITCRASQNIRRSLNWYQQKPGKAPKLLIYAASSLQSGVPSRFSGSGSGTDFTLTISSLQPEDFATYYCQQSSNTPWTFGQGTKVEIKR
Take B2: the binding result was “binds” in test [1]; “no binding” in test [2]; “no binding” in test [3]; “binds” in test [4]; “no binding” in test [5]; “binds” in test [6].

B3: SH28 (Fab, V domains shown)
VH: EVQLLESGGGGVQPGRSLRLSCAASGFTFNSYAMYWVRQPPGKGLEWVAAIWYDGSNKEYADFVKGRFTISRDNSKNTLSLQMNSLRDEDTAVYYCAREANLLRGWSRYYYGMDVWGQGTTVTVSS
VL: AELTQSPSSLSASVGDRVTITCRADQNIRRSLNWFQQKPGKAPKLLIYAASSLQSGVPSRFSGSGSGTDFTLTISSLQPEDFATYYCQQSSSTPWTFGRGTKVEIKR
In the case of B3, the binding entry in test [1] was “binds”; in test [2], “no binding”; in test [3], “no binding”; in test [4] it was “binds”; in test [5] it was “no binding”; in test [6], “binds”.

B4: SH08 (Fab, V domains shown)
VH: EVQLLESGGGVVQPGRSLRLSCAVSGFTLTNYGMHWVRQAPGKGLEWVAHVWYDGSKTEYADSVKGRFAVSRDKSKNTLFLQMNSLTAEDTAIYYCARERREKVYILFYSWLDRWGQGTLVTVSS
VL: AELTQSPSSLAASVGDRVTITCRANQTIRTSLNWYQQRPGKAPNLLIYGASRLHSGVPSRFSGGISGADFTLTISSLQPEDFATYYCQQTYGYSRTFGQGTKVDIKR
Consider B4, for which the binding result in test [1] is listed as “binds”; in test [2], “binds”; in test [3], “binds”; in test [4], “binds”; in test [5] it was “no binding”; in test [6], “binds”.

B5: SH30 (Fab, V domains shown)
VH: EVQLLESGGGVVQPGRSLRLSCAVSGFTLTNYGMHWVRQAPGKGLEWVAHVWYDGSKTEYADSVKGRFAVSRDKSKNTLFLQMNSLTAEDTAIYYCARERREKVYILFYSWLDRWGQGTLVTVSS
VL: AELTQSPSSLSASVGDRVTITCRASQSIRRSLNWYQQSPGKTPKLLIYAASSLQSGVPSRFSGSGSGTDFTLTISSLQPEDFATYYCQQSYSTLTFGGGTKVEIKR
B5: the binding entry in test [1] was “binds”; in test [2], “binds”; in test [3], “binds”; in test [4] it was “binds”; in test [5] it was “no binding”; in test [6] it was “binds”.

B6: SH20 (Fab, V domains shown)
VH: VQLLEESGGGVVQPGRSLRLSCAASGFTFRSYAMHWVRQAPGKGLEWVAVISYDGSTIYYADSVKGRFTISRANSKNTLFLQMNSLRTEDTAVYYCTRGGFYYDSSGYYGLRHYFDYWGQGTLVTVSS
VL: AELTQSPFSLSASVGDRVTITCRASQSISRSLNWYQHKPGEAPKLLIYAASSLQRGVPPRFSGSGSGTDFTLTISSLQPEDFATYFCQQSVRIPYSFGQGTKLEIKR
Consider B6, for which the binding entry in test [1] is listed as “no binding”; in test [2] it was “binds”; in test [3], “binds”; in test [4] it was “binds”; in test [5], “no binding”; in test [6], “no binding”.

B7: SH46 (Fab, V domains shown)
VH: VQLLEESGGGVVQPGRSLRLSCAASGFTFSSYGMHWVRQAPGRGLEWVALIWYDGGNKEYADSVKGRFSISRDNSKNTLYLQVNSLRADDTAVYYCARDQRAAAGIFYYSRMDVWGQGTTVTVSS
VL: AELTQSPSSLSASVGDRVTITCRASQYISSYLNWYQQKPGKAPNLLIYAASSLQSGVPSRFSGSGSGTDFTLTISSLQPEDFATYYCQQTYSSPSTFGPGTKVDIKR
As for B7, the binding result in test [1] is listed as “no binding”; in test [2], “binds”; in test [3], “binds”; in test [4], “no binding”; in test [5], “no binding”; in test [6], “no binding”.

B8: E1/M3 (Fab, V domains shown)
VH: EVQLLESGGGLVKPGGSLRLSCAASGFTFSSYSMHWVRQAPGKGLEWVSSISNSNTYIYYADAVKGRFTISRDNAKNSLYLQMNSLRAEDTAVYYCARDSRYSNFLRWVRSDGMDVWGQGTTVIVSS
VL: AELTQPPSASGTPGQRVTISCSGSSSNIGSNYVYWYQQLPGTAPKLLIYRNNQRPSGVPDRFSGSKSGTSASLAISGLRSEAEADYYCAAWDDSLSAVVFGGGTKLTVLL
For the molecule B8, in test [5], the binding result is reported as “binds”.

B9: SH26 (Fab, V domains shown)
VH: EVQLLESGGGVVQPGRSLRLSCVVSGFTFNNYGMHWVRQAPGKGLEWVAVIWFDGSNKYYADSVKGRFTISRDNSKNTLYLQMNSLRAEDTAVYYCARENQIKLWSRYLYYFDYWGQGTLVTVSS
VL: AELTQSPSSLSASVGDRVTITCRASQSISSYLNWYQQKPGKAPKLLIYAASSLQSGVPSRFSGSGSGTDFTLTISSLQPEDFATYYCQQSYSFRRYSFGQGTKLEIKR
In the case of B9, the binding entry in test [1] is “binds”; in test [2], “binds”; in test [3], “no binding”; in test [4] it was “no binding”; in test [5], “no binding”; in test [6], “no binding”.

B10: SH34 (Fab, V domains shown)
VH: EVQLLESGGGVVQPGRSLRLSCAASGFSFSSYGMHWVRQAPGKGLEWVAVISYDGTNKYFADSVKGRFTISRDNSKKTLYLQMTSLRPEDTAVYFCANLRGEVTRRASVPLDIWGQGTMVTVSS
VL: AELTQSPSSLSASVGDRVTITCRASQSISSYLNWYQQKPGKAPKLLIYAASGLQSGVPSRFSGSGSGTDFTLTISSLQPEDFATYYCQQSYSTPPYTFGQGTKLEIKR
As for B10, the binding entry in test [1] is reported as “binds”; in test [2] it was “no binding”; in test [3] it was “no binding”; in test [4], “no binding”; in test [5], “no binding”; in test [6], “binds”.

B11: SH17 (Fab, V domains shown)
VH: EVQLLESGGGLVQPGGSLRLSCGASGIPFVSSWMAWVRQAPGKGLEWVANIKQDGSKKNYVDSVEGRFTISRDNAKNSLYLQMDSLRAEDTRIYYCARDSLTCFDYWGQGALVTVSS
VL: AELQDPVVSVALGQTVRITCQGDGLRSYYASWYQQKPGQAPKLVMYGRNNRPSGIPGRFSGSSSGQTAALTITGTQAEDEADYYCQSRATSGNPVVFGGGTKLTVL
Consider B11, for which the binding entry is “binds” in test [1]; “no binding” in test [2]; “no binding” in test [3]; “no binding” in test [4]; “no binding” in test [5]; “binds” in test [6].

B12: SH18 (Fab, V domains shown)
VH: EVQLLESGGGVVQPGRSLRLSCAASGFTFRSYAMHWVRQAPGKGLEWVAATAYDGKNKYYADSVKGRFTISRDNSMNTLFLQMNSLRAEDTAVFYCARGGFYYDSSGYYGLRHYFDSWGQGTLVTVSS
VL: AELTQSPSSLSASVGDRVTITCRASQSISIALNWYQQRPGKAPKLLMYATSTLQSGVPSRFSGSGSGTDFTLTISSLQPEDFATYYCQQYYNKPTFGPGTKVDIKR
For B12, the binding result is “no binding” in test [1]; “binds” in test [2]; “binds” in test [3]; “no binding” in test [4]; “no binding” in test [5]; “no binding” in test [6].

B13: SH12 (Fab, V domains shown)
VH: EVQLLESGGGVVQPGRSLRLSCAASGFTFSTYGMHWVRQAPGKGLEWVAVIWFDGSNKEYADSVKGRFTVSRDNSKNTLYLQMNSLRAEDTAVYYCAREEVVRGVILWSRKFDYWGQGTLVTVSS
VL: AELTQSPFSLSASVGDRVTITCRASHNIYRSLNWFQHKPGEAPKLLVYAASSLQRGVPTRFSGSGSGTDFTLTISSLQPEDSATYFCQQSVTFPYTFGQGTKLEIRR
Consider B13, for which the binding result in test [1] is recorded as “binds”; in test [2] it was “binds”; in test [3], “binds”; in test [4], “binds”; in test [5], “no binding”; in test [6] it was “binds”.

B14: SH21 (Fab, V domains shown)
VH: EVQLLESGGGVVQPGRSLRLSCAASGFTFSTYGMHWVRQAPGKGLEWVAVIWFDGSNKEYADSVKGRFTVSRDNSKNTLYLQMNSLRAEDTAVYYCAREEVVRGVILWSRKFDYWGQGTLVTVSS
VL: AELTQSPSFLSASVGDRVTITCRASQGIRSYLAWYQQKPGKAPKLLIYAASTLQSGVPSRFSGSGSGTEFTLTIASLQPDDFATYYCQQLNNYPPFTFGPGTKVDIKR
Consider B14, for which the binding entry in test [1] was “binds”; in test [2], “binds”; in test [3] it was “no binding”; in test [4] it was “binds”; in test [5] it was “no binding”; in test [6] it was “no binding”.
